Tested on: V(D)J recombination in Nalm6 (pGG49)
Assay: V(D)J recombination in Nalm6 using pGG49
Assay type: cell-based
Description: Evaluation of efficiency of V(D)J recombination following treatment with SCR116 and SCR132 was carried out as depicted in FIGS. 6(A-C). Tables 4 and 5 summarize the effect of SCR116 (1 and 2 μM) and SCR132 (0.5 and 1 μM) on V(D)J recombination in Nalm6 using pGG49 and pGG51, respectively.

Row | Compound | Amp (A) colonies (1 μM) | CA colonies (1 μM) | Amp (A) colonies (2 μM) | CA colonies (2 μM) | Amp (A) colonies (0.5 μM) | CA colonies (0.5 μM)
1 | Nc1nc(S)nc(O)c1/N=C/c1ccc([N+](=O)[O-])s1 [Compound 16, (E)-6-amino-2-mercapto-5-(((5-nitrothiophen-2-yl)methylene)amino)pyrimidin-4-ol] | 100880 | 65 | 106320 | 14 | – | –
2 | Nc1nc(S)nc(O)c1/N=C/c1sc(Cl)nc1Cl [Compound 32, (E)-6-amino-5-(((2,4-dichlorothiazol-5-yl)methylene)amino)-2-mercaptopyrimidin-4-ol] | 101207 | 10 | – | – | 122880 | 42

— US20250100977A1, “MERCAPTOPYRIMIDINE COMPOUNDS THAT INHIBIT NONHOMOLOGOUS END JOINING AND METHODS THEREOF” (INDIAN INSTITUTE OF SCIENCE, priority 2021, published 2025)
